The results in this text go back to patent US12685781B2 (DAIICHI SANKYO COMPANY, LIMITED, priority 2014, dated 2026).

The series is described as follows: general procedure: solution-phase peptide synthesis; N-hydroxysuccinimide with EDC hydrochloride or N,N'-dicyclohexylcarbodiimide.

Consider “Glycylglycyl-L-phenylalanyl-N-(4-{[(1S,9S)-9-ethyl-5-fluoro-9-hydroxy-4-methyl-10,13-dioxo-2,3,9,10,13,15-hexahydro-1H,12H-benzo[de]pyrano[3′,4′:6,7]indolizino[1,2-b]quinolin-1-yl]amino}-4-oxobutyl)glycinamide trifluoroacetate”, for which the step yield (late stage modification step, trifluoroacetate) turned out to be 99%.
As for “N-(tert-butoxycarbonyl)glycylglycyl-L-phenylalanyl-N-(4-{[(1S,9S)-9-ethyl-5-fluoro-9-hydroxy-4-methyl-10,13-dioxo-2,3,9,10,13,15-hexahydro-1H,12H-benzo[de]pyrano[3′,4′:6,7]indolizino[1,2-b]quinolin-1-yl]amino}-4-oxobutyl)glycinamide”, the conjugation yield (conjugation step) came to 73%.
As to “tert-Butyl (3S,12S)-12-benzyl-21-{[(1S,9S)-9-ethyl-5-fluoro-9-hydroxy-4-methyl-10,13-dioxo-2,3,9,10,13,15-hexahydro-1H,12H-benzo[de]pyrano[3′,4′:6,7]indolizino[1,2-b]quinolin-1-yl]amino}-3-{[(9H-fluoren-9-ylmethoxy)carbonyl]amino}”, where the note is “coupling step”, the step yield was 70%.
On the same count and under the same terms, with “tert-Butyl (5S,14S)-5-benzyl-1-{[(1S,9S)-9-ethyl-5-fluoro-9-hydroxy-4-methyl-10,13-dioxo-2,3,9,10,13,15-hexahydro-1H,12H-benzo[de]pyrano[3′,4′:6,7]indolizino[1,2-b]quinolin-1-yl]amino}-14-{[(9H-fluoren-9-ylmethoxy)carbonyl]amino}” the figure was 73%.
